Results on 8 substances are retold here after publication doi:10.1101/679431.

Protein sequences, listed by entry. Tags and fused reporters are not part of them. Residues count along the entry.
UniProt P31040, residues 43-664: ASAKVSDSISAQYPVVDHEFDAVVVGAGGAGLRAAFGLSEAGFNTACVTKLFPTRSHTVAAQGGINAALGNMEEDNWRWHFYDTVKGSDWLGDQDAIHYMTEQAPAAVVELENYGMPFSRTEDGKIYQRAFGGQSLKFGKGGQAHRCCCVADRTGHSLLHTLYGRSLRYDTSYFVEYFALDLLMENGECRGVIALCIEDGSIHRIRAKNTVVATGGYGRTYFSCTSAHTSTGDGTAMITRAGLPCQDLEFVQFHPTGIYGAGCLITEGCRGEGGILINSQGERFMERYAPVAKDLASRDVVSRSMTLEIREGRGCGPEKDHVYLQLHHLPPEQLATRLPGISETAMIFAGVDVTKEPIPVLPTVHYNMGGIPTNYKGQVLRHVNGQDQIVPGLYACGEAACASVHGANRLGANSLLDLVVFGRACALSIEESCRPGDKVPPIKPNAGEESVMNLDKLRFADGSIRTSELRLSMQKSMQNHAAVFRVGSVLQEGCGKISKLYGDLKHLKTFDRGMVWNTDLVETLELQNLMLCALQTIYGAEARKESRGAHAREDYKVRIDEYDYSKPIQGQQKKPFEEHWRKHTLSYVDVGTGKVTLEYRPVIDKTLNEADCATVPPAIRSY
UniProt Q9BXM7, residues 78-581: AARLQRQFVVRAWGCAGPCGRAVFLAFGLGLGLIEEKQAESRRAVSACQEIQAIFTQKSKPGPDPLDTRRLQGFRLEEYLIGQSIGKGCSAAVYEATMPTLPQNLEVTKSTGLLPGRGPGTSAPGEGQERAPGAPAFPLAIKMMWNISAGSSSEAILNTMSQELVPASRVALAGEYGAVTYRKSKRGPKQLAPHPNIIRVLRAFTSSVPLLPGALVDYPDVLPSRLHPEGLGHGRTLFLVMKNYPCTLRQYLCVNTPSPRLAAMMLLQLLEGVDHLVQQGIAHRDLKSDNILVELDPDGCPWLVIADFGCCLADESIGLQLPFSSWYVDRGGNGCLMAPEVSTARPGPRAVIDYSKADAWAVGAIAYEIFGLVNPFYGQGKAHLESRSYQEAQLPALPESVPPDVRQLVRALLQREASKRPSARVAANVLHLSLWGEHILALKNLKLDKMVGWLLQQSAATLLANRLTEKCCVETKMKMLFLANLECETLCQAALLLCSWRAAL
UniProt P30405, residues 30-207: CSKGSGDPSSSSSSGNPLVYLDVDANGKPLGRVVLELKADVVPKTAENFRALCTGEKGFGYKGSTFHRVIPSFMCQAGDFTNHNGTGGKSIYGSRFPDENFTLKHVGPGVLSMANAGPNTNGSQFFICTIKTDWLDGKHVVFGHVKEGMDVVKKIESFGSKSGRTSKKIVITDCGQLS
UniProt P40939, residues 37-763: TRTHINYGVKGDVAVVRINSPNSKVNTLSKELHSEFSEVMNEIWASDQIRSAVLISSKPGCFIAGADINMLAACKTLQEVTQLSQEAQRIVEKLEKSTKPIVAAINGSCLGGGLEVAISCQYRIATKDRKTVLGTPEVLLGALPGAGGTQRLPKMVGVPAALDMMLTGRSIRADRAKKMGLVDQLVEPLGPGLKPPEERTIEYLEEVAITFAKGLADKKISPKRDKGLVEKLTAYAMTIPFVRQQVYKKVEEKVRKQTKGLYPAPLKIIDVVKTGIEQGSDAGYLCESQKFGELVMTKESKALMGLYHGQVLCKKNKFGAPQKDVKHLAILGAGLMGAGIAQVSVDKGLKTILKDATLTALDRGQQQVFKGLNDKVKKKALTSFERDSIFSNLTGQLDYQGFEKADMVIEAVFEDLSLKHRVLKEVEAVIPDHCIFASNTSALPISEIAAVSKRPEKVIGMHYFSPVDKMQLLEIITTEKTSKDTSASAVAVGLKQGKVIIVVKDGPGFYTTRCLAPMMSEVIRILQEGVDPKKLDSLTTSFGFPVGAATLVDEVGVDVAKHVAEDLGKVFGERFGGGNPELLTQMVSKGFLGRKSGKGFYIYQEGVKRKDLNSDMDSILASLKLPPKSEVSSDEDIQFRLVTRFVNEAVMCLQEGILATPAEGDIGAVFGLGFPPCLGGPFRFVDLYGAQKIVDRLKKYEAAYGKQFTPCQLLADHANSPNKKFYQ
UniProt P15104: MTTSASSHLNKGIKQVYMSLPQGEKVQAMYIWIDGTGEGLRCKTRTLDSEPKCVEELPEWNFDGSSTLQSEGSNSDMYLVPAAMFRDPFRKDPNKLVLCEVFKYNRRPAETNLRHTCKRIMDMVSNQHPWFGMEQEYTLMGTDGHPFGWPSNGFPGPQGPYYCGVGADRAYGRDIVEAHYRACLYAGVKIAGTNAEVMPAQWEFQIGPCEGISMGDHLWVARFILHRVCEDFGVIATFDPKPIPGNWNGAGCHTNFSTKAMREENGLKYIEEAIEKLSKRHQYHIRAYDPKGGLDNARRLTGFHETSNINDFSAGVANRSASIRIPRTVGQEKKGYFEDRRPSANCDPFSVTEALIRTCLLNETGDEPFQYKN
UniProt P10809, residues 27-573: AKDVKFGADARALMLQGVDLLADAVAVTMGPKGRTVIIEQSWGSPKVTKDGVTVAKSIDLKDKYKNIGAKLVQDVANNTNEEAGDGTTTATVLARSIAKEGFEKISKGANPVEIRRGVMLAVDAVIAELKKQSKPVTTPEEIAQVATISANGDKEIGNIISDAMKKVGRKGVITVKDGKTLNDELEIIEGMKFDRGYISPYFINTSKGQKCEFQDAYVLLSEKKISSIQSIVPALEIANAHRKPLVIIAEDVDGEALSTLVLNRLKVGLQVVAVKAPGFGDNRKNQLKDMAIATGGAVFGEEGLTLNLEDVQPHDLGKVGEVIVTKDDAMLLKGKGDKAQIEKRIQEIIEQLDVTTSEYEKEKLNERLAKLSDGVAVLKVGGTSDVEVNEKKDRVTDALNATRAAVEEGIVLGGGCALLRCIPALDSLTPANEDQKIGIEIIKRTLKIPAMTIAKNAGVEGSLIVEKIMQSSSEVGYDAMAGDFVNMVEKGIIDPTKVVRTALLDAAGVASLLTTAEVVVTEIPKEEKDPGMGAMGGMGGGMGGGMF

Results are given in words; binding and its absence hold for the method and conditions named. Binding seen in cells or lysates may run through a third protein. A yes stands for co-enrichment or nearness to the bait. Other partners may have been found. No binding means not detected with the bait. For some of these results: Sequences can lack the tags named with a protein.

For test [1], the target named is WT TRAP1 with C-terminal HA tag (pcDNA3.1 (+) MTS-HA vector) (human) (UniProt Q12931). Put plainly: affinity purification with mass spectrometry.
In test [2] the target is T1, TRAP1 double point mutant E115A/R402A with C-terminal HA tag (human) (UniProt Q12931).
T1 sequence: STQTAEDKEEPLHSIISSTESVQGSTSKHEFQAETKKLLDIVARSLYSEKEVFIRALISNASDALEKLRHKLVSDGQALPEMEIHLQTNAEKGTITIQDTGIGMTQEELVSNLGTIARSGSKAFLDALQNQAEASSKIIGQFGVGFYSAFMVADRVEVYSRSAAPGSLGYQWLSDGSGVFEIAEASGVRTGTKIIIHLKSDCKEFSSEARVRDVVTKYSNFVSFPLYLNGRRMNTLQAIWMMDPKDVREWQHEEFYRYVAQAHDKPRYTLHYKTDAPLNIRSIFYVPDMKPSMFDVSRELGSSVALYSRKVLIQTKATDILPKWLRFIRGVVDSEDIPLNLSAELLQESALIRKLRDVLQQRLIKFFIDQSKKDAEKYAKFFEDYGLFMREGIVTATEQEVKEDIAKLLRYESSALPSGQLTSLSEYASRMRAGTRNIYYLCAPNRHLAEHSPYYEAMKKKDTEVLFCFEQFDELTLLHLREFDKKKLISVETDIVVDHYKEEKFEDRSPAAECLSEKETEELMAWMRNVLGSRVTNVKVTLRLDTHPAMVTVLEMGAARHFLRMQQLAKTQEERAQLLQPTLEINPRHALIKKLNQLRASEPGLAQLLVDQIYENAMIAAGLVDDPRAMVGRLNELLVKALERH
The test is described as follows: affinity purification with mass spectrometry.

SDHA (from UniProt P31040 43-664): the binding entry in test [1] is listed as “binds”.
With PINK1 (from UniProt Q9BXM7 78-581), the binding result in test [2] is “no binding”.
The same measure, in the same setting: for “cyclophilin D (from UniProt P30405 30-207)” the value was “no binding”.
In the case of “ECHA (from UniProt P40939 37-763) (enzyme)”, the binding result in test [2] and in test [1] was “binds” each time.
On to “glutaminase (human (endogenous in HEK293T)) (enzyme)”, for which, in test [2], the binding result is recorded as “no binding”.
Turning to “glutamine synthase (from UniProt P15104 1-373) (enzyme)”, the binding entry in test [2] and in test [1] was “no binding” each time.
As to “glutamate dehydrogenase (human (endogenous in HEK293T)) (enzyme)”, in test [2], the binding result is listed as “no binding”.
Still for that read-out and setting: for “CH60 (HSP60) (from UniProt P10809 27-573)” the value was “binds”.
